Experimental data as given in patent US20250057951A1, “DISCERNIBLE CELL SURFACE PROTEIN VARIANTS OF CD117 FOR USE IN CELL THERAPY” (UNIVERSITÄT BASEL, priority 2021, published 2025).
Residue numbers refer to the chain shown, from its start. Numbers in names are those of the source. Some entries share one result that the patent states for a list of compounds.

B1: D121V (receptor)
extracellular domains 1, 2 and 3: QPSVSPGEPSPPSIHPGKSDLIVRVGDEIRLLCTDPGFVKWTFEILDETNENKQNEWITEKAEATNTGKYTCTNKHGLSNSIYVFVRDPAKLFLVVRSLYGKEDNDTLVRCPLTDPEVTNYSLKGCQGKPLPKDLRFIPDPKAGIMIKSVKRAYHRLCLHCSVDQEGKSVLSEKFILKVRPAFKAVPVVSVSKASYLLREGEEFTVTCTIKDVSSSVYSTWKRENSQTKLQEKYNSWHHGDFNYERQATLTISSARVNDSGVFMCYANNTFGSANVTTTLEVVD
notes: not in the list MOLECULES; also called human CD117 D1-2-3 variant D121V
B2: D121Y: variant of human CD117 with substitution D121Y (protein)
chain: QPSVSPGEPSPPSIHPGKSDLIVRVGDEIRLLCTDPGFVKWTFEILDETNENKQNEWITEKAEATNTGKYTCTNKHGLSNSIYVFVRDPAKLFLVYRSLYGKEDNDTLVRCPLTDPEVTNYSLKGCQGKPLPKDLRFIPDPKAGIMIKSVKRAYHRLCLHCSVDQEGKSVLSEKFILKVRPAFKAVPVVSVSKASYLLREGEEFTVTCTIKDVSSSVYSTWKRENSQTKLQEKYNSWHHGDFNYERQATLTISSARVNDSGVFMCYANNTFGSANVTTTLEVVDKG
B3: D121T: variant of human CD117 with substitution D121T (protein)
chain: B2 chain with Y96T
B4: S123V: variant of human CD117 with substitution S123V (protein)
chain: B2 chain with Y96D, S98V
B5: S239K: variant of human CD117 with substitution S239K (protein)
chain: B2 chain with Y96D, S214K

Assay: Aggregation of CD117 variants by preparative size exclusion chromatography
Format: physicochemical
Conditions: estimated from preparative size-exclusion chromatograms

Molecule	monomeric content
S1231: variant of human CD117, printed S1231, probably substitution S123I	less than 50%
B1	less than 50%
B2	less than 50%
B3	less than 50%
B4	less than 50%
B5	less than 50%
